Values from PubChem BioAssay AID720505 (Drosophila RNAi Screening Center, 2013)
In all, the deposit lists about 20,000 reagents; this is a random part of those that have a named target and a result. Over the whole deposit, about 2,100 (10%) are marked active. 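Raw plate signals without normalisation; calls rest on control-based scores that were not deposited; replicate 2 separates called from uncalled poorly.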 A number with no mark means an inactive call. Names joined by + are all predicted targets of the reagent. The record does not give: the amount of reagent, the time to read-out.

- Screen: 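Genes needed for store-operated calcium entry in fly cells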 (primary screen)
- Cells: Drosophila S2R+ cells
- Knock-down reagent: long dsRNA against Drosophila genes
- Challenge: thapsigargin (2 µM) in calcium-free buffer to empty internal stores, then 2 mM calcium added back
- Measurement: 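Stores emptied by 2 µM thapsigargin without calcium, then 2 mM calcium re-added; fluo-4 fluorescence followed by FLIPR in 384-well plates, per-well averaged endpoint, raw; two screen passes, some wells retested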
- Direction: calcium signal and retest calcium signal: higher = more calcium entry after store depletion
- Hit rule: 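About 1500 genes called as lowering calcium entry, by varying amounts, judged against per-plate control wells with STIM1 as positive and Rho1 as negative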
- Meaning of the calls: active = called as lowering calcium entry; inactive = not called

calcium signal, replicate 1 | calcium signal, replicate 2 | retest calcium signal, replicate 1 | retest calcium signal, replicate 2 | gene | PubChem SID
136 | 96.1 | – | – | TfIIA-S | SID104196675
185 | 94.2 | – | – | sob | SID104180630
108 | 107 | – | – | Syx7 | SID104191555
128 | 101 | – | – | RpL18A | SID104187330
131 | 93.5 | – | – | Hsp70Bc | SID104195845
93.9 | 93.8 | – | – | Roc1b + Cdc5 | SID104188479
109 | 80.9 | – | – | Cep290 | SID104188151
128 | 132 | – | – | Dlip2 | SID104192138
107 | 250 | – | – | Cdk2 | SID104196713
93.4 | 73.8 | – | – | CG13312 | SID104189775
50 (active) | 96.2 | – | – | Ugt302E1 | SID104195427
91.4 | 108 | – | – | CG32277 | SID104187988
158 | 135 | – | – | Cpr23B | SID104180347
101 | 102 | – | – | Pfdn6 | SID104190707
102 | 119 | – | – | BicD | SID104181798
167 | 139 | – | – | Tengl1 | SID104180273
76.6 | 164 | – | – | Krn | SID104190994
101 | 157 | – | – | Sirup | SID104182823
153 | 213 | – | – | Gr59b | SID104183971
90 | 116 | – | – | shv | SID104180432
89.1 | 150 | – | – | shv | SID104201680
178 | 141 | – | – | CG6191 | SID104185730
102 | 176 | – | – | CG6191 | SID104202484
142 | 130 | – | – | Peritrophin-A | SID104200362
127 | 145 | – | – | CG17249 | SID104188309
152 | 297 | – | – | GABPI | SID104180286
166 | 122 | – | – | CG4438 | SID104182538
179 | 142 | – | – | CG11828 | SID104194186
166 | 218 | – | – | CG11828 | SID104202003
101 | 175 | – | – | Tsc1 | SID104196682
80 | 148 | – | – | kek6 | SID104195091
138 | 170 | – | – | TpnC47D | SID104187356
216 | 244 | – | – | Qsox4 | SID104194016
97 | 81.7 | – | – | Hsc70-1 | SID104190977
56.8 (active) | 68.1 | 7126 | 123 | CG32507 | SID104200213
209 | 205 | – | – | CG17477 | SID104195031
121 | 135 | – | – | Prp18 | SID104196594
83 | 99.5 | – | – | CG34056 | SID104188166
111 | 77.5 | – | – | CecA2 | SID104196396
215 | 78.9 | – | – | CG9394 | SID104184342
119 | 88.7 | – | – | CG9727 | SID104192377
95.5 | 155 | – | – | Flad2 | SID104182323
147 | 98.7 | – | – | crp | SID104183307
116 | 114 | – | – | CG7606 | SID104196060
104 | 81.1 | – | – | Cyt-c1L | SID104194652
92.9 | 223 | – | – | Cyt-c1L | SID104201666
106 | 98.3 | – | – | CG13875 | SID104188137
159 | 147 | – | – | CkIIbeta2 | SID104187153
170 | 80.9 | – | – | Gr28b | SID104182083
180 | 92 | – | – | Gr28b | SID104182084
122 | 150 | – | – | sas | SID104192423
66.3 (active) | 114 | – | – | Fie | SID104187950
99.6 | 98.8 | – | – | APC7 | SID104197729
141 | 157 | – | – | js | SID104194796
98.8 | 192 | 110 | 105 | Gpdh1 | SID104183128
154 | 106 | – | – | Gpdh1 | SID104201351
188 | 160 | – | – | CG17786 | SID104195062
79.9 | 132 | – | – | CG34429 | SID104189912
106 | 86.5 | – | – | Swip-1 | SID104181875
98.7 | 88.3 | – | – | Swip-1 | SID104181876
246 | 222 | – | – | Or94a | SID104196564
120 | 136 | – | – | wdp | SID104184159
83.2 | 97.3 | – | – | Neb-cGP | SID104197783
173 | 163 | – | – | Or42b | SID104184705
162 | 157 | – | – | CG5697 | SID104195650
100 | 153 | – | – | HP4 | SID104190750
84 | 135 | – | – | CG6843 | SID104190517
134 | 89.7 | 9314 | 166 | Ubx | SID104196683
175 | 80.7 | – | – | Mondo | SID104182459
66.5 | 197 | – | – | Mondo | SID104182460
63.8 | 180 | – | – | Mondo | SID104201597
144 | 120 | – | – | CG1640 | SID104199542
161 | 309 | – | – | beat-IV | SID104193987
133 | 102 | – | – | beat-IV | SID104194465
135 | 169 | – | – | Drip | SID104187197
198 | 110 | – | – | Rab30 | SID104182929
182 | 83.9 | – | – | CG17707 | SID104200442
135 | 171 | – | – | Rpn7 | SID104196633
74.1 (active) | 126 | – | – | ND-B8 | SID104180241
103 | 184 | – | – | jdp | SID104196767
157 | 115 | – | – | CG5292 | SID104195555
96.4 | 95.8 | – | – | CG12984 | SID104191485
113 | 97.4 | – | – | TTLL12 | SID104186347

Part of the list above, set out differently:
CG17477 [SID104195031]: calcium signal, replicate 1 = 209; calcium signal, replicate 2 = 205
Prp18 [SID104196594]: calcium signal, replicate 1 = 121; calcium signal, replicate 2 = 135
CG34056 [SID104188166]: calcium signal, replicate 1 = 83; calcium signal, replicate 2 = 99.5
CecA2 [SID104196396]: calcium signal, replicate 1 = 111; calcium signal, replicate 2 = 77.5
CG9394 [SID104184342]: calcium signal, replicate 1 = 215; calcium signal, replicate 2 = 78.9
CG9727 [SID104192377]: calcium signal, replicate 1 = 119; calcium signal, replicate 2 = 88.7
Flad2 [SID104182323]: calcium signal, replicate 1 = 95.5; calcium signal, replicate 2 = 155
crp [SID104183307]: calcium signal, replicate 1 = 147; calcium signal, replicate 2 = 98.7
CG7606 [SID104196060]: calcium signal, replicate 1 = 116; calcium signal, replicate 2 = 114
Cyt-c1L [SID104194652]: calcium signal, replicate 1 = 104; calcium signal, replicate 2 = 81.1
Cyt-c1L [SID104201666]: calcium signal, replicate 1 = 92.9; calcium signal, replicate 2 = 223
CG13875 [SID104188137]: calcium signal, replicate 1 = 106; calcium signal, replicate 2 = 98.3
